Two molecules from paper PMC12339401 can be followed below.

Chains of the proteins cited; added tags and fusions are not shown. Residues count along the entry.
UniProt O60238, residues 1-182: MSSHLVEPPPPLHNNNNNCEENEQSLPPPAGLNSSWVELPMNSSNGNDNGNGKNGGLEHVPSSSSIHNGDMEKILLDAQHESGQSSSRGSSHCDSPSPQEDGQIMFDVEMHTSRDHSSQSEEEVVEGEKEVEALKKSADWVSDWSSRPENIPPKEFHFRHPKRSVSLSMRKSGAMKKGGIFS

Results are given in words; binding and its absence hold for the method and conditions named. Binding seen in cells or lysates may run through a third protein. Here binding means that the protein was enriched with, or labelled near, the bait; the list need not be complete.

In one test the target is NIX(1–182)-GST (human) (UniProt O60238). Put plainly: affinity purification with mass spectrometry; beads precoated with NIX(1–182)-GST or BNIP3(1–158)-GST, incubated overnight with HeLa cell lysate (20 mM Tris-HCl pH 7.4, 150 mM KCl, 2.5 mM MgCl2, 0.5% NP-40), mass spectrometry; only the target purified.
A further test concerns the target BNIP3(1–158)-GST (human). The description is as above.

B1: WIPI2 (endogenous) (protein, UniProt Q9Y4P8 1-454)
chain: MNLASQSGEAGAGQLLFANFNQDNTEVKGASRAAGLGRRAVVWSLAVGSKSGYKFFSLSSVDKLEQIYECTDTEDVCIVERLFSSSLVAIVSLKAPRKLKVCHFKKGTEICNYSYSNTILAVKLNRQRLIVCLEESLYIHNIRDMKVLHTIRETPPNPAGLCALSINNDNCYLAYPGSATIGEVQVFDTINLRAANMIPAHDSPLAALAFDASGTKLATASEKGTVIRVFSIPEGQKLFEFRRGVKRCVSICSLAFSMDGMFLSASSNTETVHIFKLETVKEKPPEEPTTWTGYFGKVLMASTSYLPSQVTEMFNQGRAFATVRLPFCGHKNICSLATIQKIPRLLVGAADGYLYMYNLDPQEGGECALMKQHRLDGSLETTNEILDSASHDCPLVTQTYGAAAGKGTYVPSSPTRLAYTDDLGAVGGACLEDEASALRLDEDSEHPPMILRTD
Take B1: in the test with NIX(1–182)-GST (human), the binding result is on record as “binds”.

B2: PPTC7 (protein, UniProt Q8NI37 69-304)
chain: RSADVLGVADGVGGWRDYGVDPSQFSGTLMRTCERLVKEGRFVPSNPIGILTTSYCELLQNKVPLLGSSTACIVVLDRTSHRLHTANLGDSGFLVVRGGEVVHRSDEQQHYFNTPFQLSIAPPEAEGVVLSDSPDAADSTSFDVQLGDIILTATDGLFDNMPDYMILQELKKLKNSNYESIQQTARSIAEQAHELAYDPNYMSPFAQFACDNGLNVRGGKPDDITVLLSIVAEYTD
Regarding B2, the binding entry in the test with BNIP3(1–158)-GST (human) and with NIX(1–182)-GST (human) was “binds” each time.
